From PubChem BioAssay AID2685 (National Center for Advancing Translational Sciences (NCATS), 2010)
Some of the results follow. The main result of the screen is listed elsewhere. These columns were measured beside it and carry no call. Compounds called inactive in the main read-out are mostly missing here. Words in brackets tell the shape of the fitted curve; partial curves, single points and poor fits give uncertain potencies.

Assay: qHTS Assay for Lipid Storage Modulators in Drosophila S3 Cells;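 as to cell number change: cells counted by Cell Tracker Red CMTPX staining in the red channel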
Settings: BODIPY lipid droplet fluorescence, 18-24 h; for cell number change: measured here: cell count max response, cells fed with added oleic acid
Method in brief: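 Drosophila S3 cells got compounds at several concentrations plus oleic acid (400 uM solution). Laser-scanning cytometry with 488 nm excitation read lipid droplets at 500-530 nm and cells at 575-640 nm. Percent activity was relative to 20 uM Triacsin C.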

[1] = measured here: lipid fluorescence (Fed channel) AC50, cells fed with added oleic acid
[2] = measured here: cell number channel AC50, cells fed with added oleic acid

Row | Structure (SMILES) | cell number change [%] | AC50 [1] | AC50 [2]
1 | Cc1cc(=O)oc2c3c(cc(OCC(=O)NCc4ccccn4)c12)OC(C)(C)CC3 | -17.8 | 25.9 µM [falling, single point] | –
2 | O=C(O)C1CCCN1S(=O)(=O)c1ccc(Br)cc1 (stereo not drawn) | -12.1 | 4.11 µM [falling, single point] | –
3 | O=C(CN1CCCC1)Nc1cc(C(F)(F)F)ccc1Cl | 17.9 | – | 0.103 µM [rising, full curve, poor fit]
4 | Cc1ccc(CN2CCN(/N=C\C(Br)=C\c3ccccc3)CC2)cc1 | -18 | 18.4 µM [falling, single point] | –
5 | CCOC(=O)c1cccc(NC(=O)COc2nsnc2N2CCOCC2)c1 | -6.67 | – | –
6 | Cc1cc(N2CCCC(C(=O)Nc3ccc4c(c3)CCC4)C2)n2ncnc2n1 (stereo not drawn) | -9.29 | 2.59 µM [rising, single point] | –
7 | O=C(c1ccc(-c2cccc(C(F)(F)F)c2)o1)N1CCN(c2ccccc2)CC1 | 49.6 | 4.61 µM [falling, partial curve, poor fit] | 16.4 µM [rising, single point]
8 | NC(=S)N/N=C1\CC(c2ccc3c(c2)OCCCO3)Oc2ccc(F)cc21 (stereo not drawn) | -27.4 | 29.1 µM [falling, single point] | –
9 | CC(C)(C)NC(=O)NC(=O)CN1C(=O)NC(c2ccccc2)(c2ccccc2)C1=O | 3.15 | – | –
10 | CCN1CCN(c2cc(C)c3cc(NC(=S)N4CCCC4)ccc3n2)CC1 | 40.8 | 0.82 µM [falling, partial curve, poor fit] | –
11 | O=C(O)[C@@H]1CCCC[C@@H]1C(=O)N1CCc2ccccc2C1CN1C(=O)c2ccccc2C1=O (stereo partly drawn) | -1.07 | 0.731 µM [rising, partial curve] | –
12 | N/C(=N\OC(=O)CCCCCN1C(=O)c2ccccc2C1=O)c1ccccc1 | – | – | 1.3 µM [rising, partial curve]
13 | CN(C(=O)CSc1nnc(-c2ccncc2)n1C)C1CCS(=O)(=O)C1 (stereo not drawn) | 0.95 | 0.517 µM [falling, full curve] | –
14 | N#Cc1ccc(CN2CCN(C(=O)CNS(=O)(=O)c3ccc4c(c3)OCCCO4)CC2)cc1 | -6.22 | 0.651 µM [falling, single point] | –
15 | COc1ccc(NC(=O)CCc2c(C)nc3nc(C)nn3c2C)cc1 | – | – | 0.461 µM [falling, single point]
16 | CC(NC(=O)CCCc1nnc2n(C)c(=O)c3sccc3n12)c1ccccc1 (stereo not drawn) | 2.29 | 6.51 µM [falling, single point] | 6.51 µM [falling, single point]
17 | Fc1ccc(N/N=C/c2cccnc2)c(F)c1 | 52 | 3.26 µM [rising, full curve] | 29.1 µM [rising, single point]
18 | O=C(O)c1cccc2c1C(=O)c1ccc(Cl)cc1S2(=O)=O | 1.41 | 0.092 µM [falling, full curve, poor fit] | 0.146 µM [falling, full curve, poor fit]
19 | CCOC(=O)COc1ccc(-c2nnc(-c3ccccc3)o2)cc1 | 4.24 | 23.1 µM [falling, single point] | –

3 entries picked at random from the list so far:
Row | Structure (SMILES) | cell number change [%] | AC50 [1] | AC50 [2]
2 | O=C(O)C1CCCN1S(=O)(=O)c1ccc(Br)cc1 (stereo not drawn) | -12.1 | 4.11 µM [falling, single point] | –
4 | Cc1ccc(CN2CCN(/N=C\C(Br)=C\c3ccccc3)CC2)cc1 | -18 | 18.4 µM [falling, single point] | –
13 | CN(C(=O)CSc1nnc(-c2ccncc2)n1C)C1CCS(=O)(=O)C1 (stereo not drawn) | 0.95 | 0.517 µM [falling, full curve] | –

Additional structures

Row | Structure (SMILES) | cell number change [%] | AC50 [1] | AC50 [2]
20 | CC(C)OCCCNc1nc2c(-c3ccccc3)nnn2c2ccccc12 | 5.48 | 6.51 µM [falling, single point] | –
21 | CCCN1C(=O)C(O)(C2COC(C)(C)CC2=O)c2ccccc21 (stereo not drawn) | 5.01 | – | –
22 | O=C1CC(c2cccc([N+](=O)[O-])c2)c2c(ccc3ccccc23)N1 (stereo not drawn) | – | 2.91 µM [falling, single point] | –
23 | CC/C(=N\NC(=O)c1ccccc1Cl)c1ccc(Br)s1 | -16.6 | 0.651 µM [falling, full curve, poor fit] | –
24 | O=C(c1cc(-c2cccc(Cl)c2)on1)N1CCCC1 | 5.83 | – | –
25 | CCOC(=O)Cn1c(=O)oc2cc(S(=O)(=O)Nc3cccc(C)c3)ccc21 | 49.6 | 1.64 µM [rising, single point] | 7.31 µM [rising, partial curve]
26 | Cc1ccc2oc(C(=O)N3CCC(C(N)=O)(N4CCCCC4)CC3)c(C)c2c1 | – | 29.1 µM [falling, single point] | –
27 | CCOC(=O)c1[nH]cnc1N=Nc1c(O)ccc2ccccc12 | -5.98 | 25.9 µM [falling, single point] | –
28 | O=C(c1ccc(F)cc1)N1CCCC(c2nc(-c3ccncc3)no2)C1 (stereo not drawn) | 14.8 | 29.1 µM [rising, single point] | –
29 | Cc1ccccc1-n1c(O)c(/C=N/N2CCCCC2c2cccnc2)c(=O)[nH]c1=O (stereo not drawn) | 5.47 | 0.731 µM [falling, full curve, poor fit] | –
30 | C=CCN(C(C)=O)C1CC(=O)N(c2ccc(OCCC)cc2)C1=O (stereo not drawn) | – | – | 2.31 µM [rising, single point]
31 | CCOC(=O)c1c(-c2ccccc2)oc2ccc(OCC(=O)O)cc12 | 12.6 | – | 0.082 µM [falling, full curve, poor fit]
32 | COC(=O)c1ccc(CN2CCCC(C(=O)Nc3cccc(-n4cccn4)c3)C2)cc1 (stereo not drawn) | 5.01 | 0.58 µM [rising, single point] | –
33 | COc1cccc(N(C(=O)CNC(=O)c2ccco2)C(C(=O)NC2CCCCC2)c2ccncc2)c1 (stereo not drawn) | 17.4 | 0.164 µM [falling, full curve, poor fit] | 1.16 µM [rising, single point]
34 | COc1ccc(CN2CCC(N3CC(C)OC(C)C3)CC2)c(OC)c1OC (stereo not drawn) | -3.56 | 16.4 µM [falling, single point] | –
35 | c1ccc(CCOn2ccnc2)cc1 | 28.8 | 25.9 µM [rising, partial curve, poor fit] | –
36 | CCOc1cc(C#N)c(NC(=O)Cn2nnc3ccccc32)cc1OCC | -2.44 | 0.231 µM [rising, full curve, poor fit] | –
37 | CNS(=O)(=O)c1c(C)cc(C)c(N(C)S(=O)(=O)c2ccccc2)c1C | -10.7 | 0.00517 µM [falling, full curve, poor fit] | –
38 | COc1cc(/C=N/n2cnnc2)ccc1OCCOc1ccccc1 | -7.41 | 5.8 µM [falling, single point] | –
